Binding data for one molecule are collected here from publication doi:10.1101/2020.08.18.255471.

The target in this assay is T1, LMO2, mouse (mouse (endogenous in ES cell-derived Flk-1+ cells and PUER cells)) (UniProt P25801).
T1 sequence: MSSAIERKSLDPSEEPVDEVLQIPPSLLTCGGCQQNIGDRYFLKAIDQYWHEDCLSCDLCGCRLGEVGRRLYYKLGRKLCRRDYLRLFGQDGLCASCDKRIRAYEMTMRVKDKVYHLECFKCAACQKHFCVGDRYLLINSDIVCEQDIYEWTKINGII
Nature of the assay: affinity purification with mass spectrometry.

Results are given in words; binding and its absence hold for the method and conditions named. Binding seen in cells or lysates may run through a third protein. Here binding means that the protein was enriched with, or labelled near, the bait; the list need not be complete.

B1: PHF6, mouse (protein, UniProt Q9D4J7 1-364)
chain: MSSSIEQKKGSTRQRKCGFCKSNRDKECGQLLISENQKVAAHHKCMLFSSALVSSHSDNESLGGFSIEDVQKEIKRGTKLMCSLCHCPGATIGCDVKTCHRTYHYHCALHDKAQIREKPSQGIYMVYCRKHKKTAHNSEADLEESFNEHELEPSSPKTKKKSRKGRPRKTNLKGLPEDSRSTSSHGTDEMESSSYRDRSPHRSSPNDTRPKCGFCHVGEEENEARGKLHIFNAKKAAAHYKCMLFSSGTVQLTTTSRAEFGDFDIKTVLQEIKRGKRMKCTLCSQPGATIGCEIKACVKTYHYHCGVQDKAKYIENMSRGIYKLYCKNHSGNDERDEEDEERESKSRGRVAIDQQLTQQQLNGN
In the case of B1, the binding entry is “binds”.
